The record followed here is US7115589B2, “Purine derivatives” (ARIAD Pharmaceuticals, Inc., priority 1999, dated 2006).

For the data set the following is noted: TSK-Gel HA 1000 column, sodium phosphate gradient, pH 6.8. As for the experimental part: Hydroxyapatite is the principal mineral component of bone. Hydroxyapatite adsorption chromatography is used as an assay to evaluate the bone-targeting potential of both individual bone-targeting moieties (“monomers”) and of pharmaceuticals incorporating bone-targeting groups.
Method: The rentention time of a test compound is measured using a linear gradient from 10 mM sodium phosphate, 0.15 N NaCl, pH=6.8 to 500 mM sodium phosphate, 0.15 N NaCl, […] on a TSK-Gel HA 1000 high pressure liquid chromatography column (7.5 mm×75 mm). […] This K value is corrected using two reference compounds to correct from inter-column and inter-system variation to obtain a K′ value.

Each structure is given as a SMILES string.

For the compound `NCCCC(O)(P(=O)(O)O)P(=O)(O)O` [Alendronate, alendronate], the “K′ value (corrected hydroxyapatite retention)” value is 3.7.
